# The other results are listed elsewhere or left out. The main result of the screen is listed elsewhere. These columns were measured beside it and carry no call. Compounds called inactive in the main read-out are mostly missing here. Potencies come from curve fits of mixed quality, noted in brackets.
# Assay: qHTS Assay to Find Inhibitors of Chronic Active B-Cell Receptor Signaling
# Conditions: ABC-DLBCL IkBa-CBG/CBR reporter, luminescence ratio (green luciferase fused to IkBa over red control in TMD8 lymphoma cells), 4 h
# Outline: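 Cell line TMD8 (human ABC DLBCL), stably expressing tet-inducible CBG68-IkBa fusion and CBR; IMDM/0.5% FBS; cpd up to 46 uM; dox induction, 4 h, 37C/5% CO2; dual luminescence; green/red ratio; MG132 control.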
# [1] = measured here: CBR red luminescence, cell number
# [2] = measured here: IkBa-CBG green luminescence
Compound,AC50 [1],AC50 [2]
CCN1CCN(c2cc(N3CCCC3)c(F)cc2[N+](=O)[O-])CC1,"18.4 µM [falling, single point]",
Nc1ccc2nc(-c3ccccc3)[nH]c2c1,"3.16 µM [falling, full curve, poor fit]",
Cc1cc(C)c2c(N)c(C(=O)N/N=C/c3ccccc3)sc2n1,"1.12 µM [rising, full curve]",
CN1CCN(c2ccc(/C=C3\C(=O)NC(=S)N(c4cccc(Br)c4)C3=O)o2)CC1,"6.51 µM [rising, partial curve]",
O=C(N/N=C/c1c(O)n(Cc2ccc(F)cc2)c(=O)[nH]c1=O)c1ccccc1O,"7.31 µM [falling, partial curve]",
C=CCn1c(O)c(/C=C2\C=Nc3ccccc32)c(=O)[nH]c1=O,"2.24 µM [falling, partial curve, poor fit]",
O=c1c2ccccc2ncn1-c1ccc([N+](=O)[O-])c(C(F)(F)F)c1,"9.2 µM [rising, partial curve]",
CC/C(CC(c1ccccc1)c1c(O)c2ccccc2oc1=O)=N\NC(N)=S (stereo not given),"7.31 µM [falling, partial curve, poor fit]",
O=C(NCc1ccccc1)c1cccn(Cc2ccccc2)c1=O,"1.26 µM [rising, full curve, poor fit]",
O=P1(O)C=C(c2ccccc2)NC(c2ccccc2)=C1,"0.184 µM [rising, full curve, poor fit]",
Cc1cccc(Cn2cc(C=O)c3ccccc32)c1,"5.62 µM [rising, single point]",
CCOc1ccc(CN2CCCC(C(=O)c3ccccc3OC)C2)cc1 (stereo not given),"25.1 µM [falling, single point]",
COC(=O)C1=C(c2ccc(-c3ccccc3)c(F)c2)C[C@@H]2CC[C@H]1N2C(=O)NCCc1ccccc1,"2.59 µM [falling, full curve]",
COc1ccc(-n2c(O)c(/C=C3\C=Nc4ccc(Br)cc43)c(=O)[nH]c2=O)cc1,"35.5 µM [rising, single point]",
O=c1[nH]c(=O)n(-c2cccc3ccccc23)c(O)c1/C=N/N1CCCCCC1,"8.91 µM [falling, partial curve, poor fit]",
O=c1[nH]c(O)c(C=Nc2ccccc2Oc2ccccc2)c(=O)[nH]1,"0.1 µM [rising, full curve, poor fit]",
COc1ccc(N2CCN(C(=O)CSc3nnc(-c4cc5ccccc5cc4O)n3C)CC2)cc1,"25.1 µM [falling, partial curve, poor fit]",
C[N+](C)(C)CCCCCCCCCC[N+](C)(C)C,"8.91 µM [rising, partial curve, poor fit]",
O=C(NCc1ccccc1)C1CCN(c2nc(-c3ccccc3)nc3c2CCC3)CC1,"10 µM [falling, partial curve, poor fit]",
Cc1cccc(Cn2cc(/C=C/[N+](=O)[O-])c3ccccc32)c1,"35.5 µM [rising, single point]",
CCOC(=O)c1c(NC(=O)CCl)sc(CN(C)C)c1-c1ccccc1,"35.5 µM [falling, single point]",

Compound,AC50 [1],AC50 [2]
CN(C)C(=O)Oc1ccc2c(c1)O/C(=C\c1ccc(Cl)cc1)C2=O,"20 µM [rising, single point]",
C[C@H](O)[C@H]1CC[C@H]2[C@@H]3CCC4=CC(=O)CC[C@]4(C)[C@H]3CC[C@]12C,,"20.6 µM [falling, single point]"
COC(=O)C1=C(c2c(C)noc2C)C[C@@H]2CC[C@H]1N2C(=O)N1CCCC1,"3.66 µM [rising, single point]",
CCCCc1cc(O)c(CCCC)c(O)c1,"17.8 µM [falling, single point]",
O=C(c1cccs1)C1CN2CCC1CC2 (stereo not given),"32.6 µM [rising, single point]",
CCC1Cc2c(nc(N)c3c(N)nc(N4CCCCC4)c(C#N)c23)O1 (stereo not given),"12.6 µM [falling, partial curve, poor fit]",
CCCOP(=O)(OCCC)c1nc(-c2ccccc2)oc1NCc1ccccc1,"25.9 µM [falling, single point]",
Nc1ccc2cc(Br)ccc2c1,"2.82 µM [rising, full curve]",
NP(=O)(OCCCc1ccccc1)Oc1ccccc1 (stereo not given),"0.316 µM [rising, full curve, poor fit]",
CCCC/C(C)=C/[C@@H](NP(=O)(c1ccccc1)c1ccccc1)c1ccccc1,"18.4 µM [falling, single point]","25.9 µM [rising, single point]"
Cn1c(O)c(Cc2ccc(OCc3ccccc3)cc2)c(=O)n(C)c1=O,"6.31 µM [rising, partial curve]",
COc1ccc(C(C)(C)C)cc1NC(=O)CCCn1c(=O)oc2ccccc21,"6.51 µM [rising, single point]",
Nc1c(C(=O)NCCN2CCOCC2)c2nc3ccccc3nc2n1Cc1ccco1,"12.6 µM [falling, single point]",
C=C1C(=O)O[C@@H]2C[C@@H](C)[C@@H]3C=CC(=O)[C@@]3(C)[C@@H](O)[C@H]12,"0.891 µM [falling, full curve]",
COc1cc([C@@H]2c3cc4c(cc3[C@@H](OC)[C@H]3COC(=O)[C@H]23)OCO4)cc(OC)c1O,"11.2 µM [rising, partial curve]","15.8 µM [falling, single point]"
O=C(Cn1c(=O)oc2ccccc21)Nc1ccccc1N1CCOCC1,"14.1 µM [falling, single point]",
O=c1[nH]c(=S)n(C2CC2)c(O)c1/C=N/Nc1ccccc1,"6.51 µM [falling, partial curve]",
O=C(CCCOc1ccc(Cl)cc1Cl)N1CCC2(CC1)OCCO2,"7.31 µM [falling, single point]",
CCOc1ccc(-c2cc(C)[n+](CCO)c(-c3ccc(OCC)cc3)c2)cc1,"15.8 µM [falling, partial curve, poor fit]",
CN1CCN(c2ccc(C(F)(F)F)cc2N)CC1,"35.5 µM [rising, single point]",
COc1ccc(/C=N/NC(=O)c2[nH]c3ccc(C)cc3c2-c2ccccc2)c(C(=O)O)c1OC,"11.2 µM [rising, partial curve]",

Compound,AC50 [1],AC50 [2]
Oc1ccc(Cl)cc1CN1CCN(Cc2ccccc2)CC1,"0.461 µM [falling, partial curve, poor fit]",
COc1cccc(-n2c(-c3ccoc3)nc3ccccc3c2=O)c1,"6.51 µM [rising, partial curve, poor fit]",
O=C(c1cccc([N+](=O)[O-])c1)c1ccc2[nH]c(=O)[nH]c2c1,"5.01 µM [rising, partial curve, poor fit]",
CCC(=NCc1ccc2c(c1)OCO2)c1c(O)n(C2CCCCC2)c(=O)[nH]c1=O,"29.1 µM [falling, single point]",
O=c1c2ccccc2nc(/C=C/c2ccccc2O)n1-c1ccccc1O,"15.8 µM [falling, partial curve, poor fit]",
CNC(=O)c1cccn(Cc2ccc(C(F)(F)F)cc2)c1=O,"8.91 µM [rising, partial curve]",
BrCC1C[n+]2c(SCc3ccccc3)nc3sc4c(c3c2O1)CCCC4 (stereo not given),"35.5 µM [rising, single point]",
O=C1NC(=O)N(c2cccc(F)c2)C(=O)/C1=C/c1ccc(N2CCOCC2)cc1,"7.08 µM [falling, full curve]",
CCOC(=O)Cn1c(=O)oc2cc(S(=O)(=O)N(C)c3ccc(OC)cc3)ccc21,"10 µM [rising, single point]",
COC(=O)C1=C(c2ccc(OC(F)(F)F)cc2)C[C@@H]2CC[C@H]1N2C(=O)NCCOc1ccccc1,"29.1 µM [falling, single point]",
CCCC(CCC)C(=O)OC[N+](C)(C)CCOC(=O)C(O)(c1ccccc1)C1CCCC1 (stereo not given),"31.6 µM [falling, single point]",
CN(Cc1ccccc1)C1CCCN(C(=O)COc2ccccc2Cl)C1 (stereo not given),"35.5 µM [falling, single point]",
O=C(NCC(O)c1ccccc1)Nc1cccs1 (stereo not given),"11.2 µM [falling, partial curve]",
O=[N+]([O-])c1ccc(Cl)c(Cl)c1Cl,"2.91 µM [rising, full curve, poor fit]",
Cc1cc(N2CCN(S(=O)(=O)c3ccc(Cl)c(Cl)c3)CC2)c2ccccc2n1,"25.1 µM [falling, single point]",
CCOC(=O)N1CCN(C(=O)CSCc2nc(-c3ccccc3C)oc2C)CC1,"17.8 µM [falling, single point]",
COc1ccc(C(=O)NC(=S)N2C[C@H]3C[C@H](C2)c2cccc(=O)n2C3)cc1,"35.5 µM [rising, single point]",
COCCOC(=O)C1=C(N)Oc2c(c(=O)oc3ccccc23)[C@@]12C(=O)Nc1ccccc12,"6.51 µM [falling, partial curve]",
C/C(=N\NC(=O)c1ccccc1O)c1c(O)n(C2CCCCC2)c(=O)[nH]c1=O,"4.47 µM [falling, full curve]",
COc1ccc(-n2c(O)c(C(C)=NCc3ccc4c(c3)OCO4)c(=O)[nH]c2=O)cc1,"0.794 µM [rising, full curve, poor fit]",
C=CCn1c(O)c(C(C)=NCCc2c[nH]c3ccccc23)c(=O)[nH]c1=O,"35.5 µM [falling, single point]",

# Given with bars between the fields: two of the compounds above
Compound | AC50 [1] | AC50 [2]
O=[N+]([O-])c1ccc(Cl)c(Cl)c1Cl | 2.91 µM [rising, full curve, poor fit] | 
Cc1cc(N2CCN(S(=O)(=O)c3ccc(Cl)c(Cl)c3)CC2)c2ccccc2n1 | 25.1 µM [falling, single point] | 

# Source: PubChem BioAssay AID493014 (National Center for Advancing Translational Sciences (NCATS), 2011)
